# Laboratory results reported in the supplement of paper PMC8728848.
# Some of the results follow.
# B1: PEB1 (Campylobacter jejuni), Q0P9X8 (protein)
# chain: MVFRKSLLKLAVFALGACVAFSNANAAEGKLESIKSKGQLIVGVKNDVPHYALLDQATGEIKGFEVDVAKLLAKSILGDDKKIKLVAVNAKTRGPLLDNGSVDAVIATFTITPERKRIYNFSEPYYQDAIGLLVLKEKKYKSLADMKGANIGVAQAATTKKAIGEAAKKIGIDVKFSEFPDYPSIKAALDAKRVDAFSVDKSILLGYVDDKSEILPDSFEPQSYGIVTKKDDPAFAKYVDDFVKEHKNEIDALAKKWGL
# What was measured:
# Assay in all cases: glycan array binding signal (z-score within array); higher = stronger binding
# Details in all cases: glycan notation: IUPAC condensed, linker removed
# [1] = biological target: Neu5Ac(a2-6)Gal(b1-4)GlcNAc(b1-2)Man(a1-3)[Neu5Ac(a2-6)Gal(b1-4)GlcNAc(b1-2)Man(a1-6)]Man(b1-4)GlcNAc(b1-4)GlcNAc
# Summary of the method: (§1)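 Glycan array data were curated from 3228 arrays in the Consortium for Functional Glycomics database and kept only where the protein sequence was available. Glycan names were converted to IUPAC-condensed notation, and columns mapping to the same glycan were averaged. The binding signal is a within-array Z-score, averaged across arrays of the same protein sequence at different concentrations or buffers and across linkers. Negative Z-scores can be read as non-binding.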
# [2] = biological target: Neu5Ac(a2-6)Gal(b1-4)GlcNAc(b1-2)Man(a1-6)Man(b1-4)GlcNAc(b1-4)GlcNAc
# Summary of the method: as §1
# [3] = biological target: Neu5Ac(a2-6)Gal(b1-4)GlcNAc(b1-2)Man(a1-6)[Gal(b1-4)GlcNAc(b1-2)Man(a1-3)]Man(b1-4)GlcNAc(b1-4)GlcNAc
# Summary of the method: as §1
# [4] = biological target: Neu5Ac(a2-6)Gal(b1-4)GlcNAc(b1-2)Man(a1-6)[GlcNAc(b1-2)Man(a1-3)]Man(b1-4)GlcNAc(b1-4)GlcNAc
# Summary of the method: as §1
# [5] = biological target: Neu5Ac(a2-6)Gal(b1-4)GlcNAc(b1-2)Man(a1-6)[Man(a1-3)]Man(b1-4)GlcNAc(b1-4)GlcNAc
# Summary of the method: as §1
# [6] = biological target: Neu5Ac(a2-6)Gal(b1-4)GlcNAc(b1-3)Gal(b1-3)GlcNAc
# Summary of the method: as §1
# [7] = biological target: Neu5Ac(a2-6)Gal(b1-4)GlcNAc(b1-3)Gal(b1-4)GlcNAc
# Summary of the method: as §1
# [8] = biological target: Neu5Ac(a2-6)Gal(b1-4)GlcNAc(b1-3)Gal(b1-4)GlcNAc(b1-3)Gal(b1-4)GlcNAc
# Summary of the method: as §1
# [9] = biological target: Neu5Ac(a2-6)Gal(b1-4)GlcNAc(b1-3)Gal(b1-4)[Fuc(a1-3)]GlcNAc(b1-3)Gal(b1-4)[Fuc(a1-3)]GlcNAc
# Summary of the method: as §1
# [10] = biological target: Neu5Ac(a2-6)Gal(b1-4)GlcNAc(b1-3)GalNAc
# Summary of the method: as §1
# [11] = biological target: Neu5Ac(a2-6)Gal(b1-4)GlcNAc6S
# Summary of the method: as §1
# [12] = biological target: Neu5Ac(a2-6)GalNAc
# Summary of the method: as §1
# [13] = biological target: Neu5Ac(a2-6)GalNAc(b1-4)GlcNAc
# Summary of the method: as §1
# [14] = biological target: Neu5Ac(a2-6)GlcNAc(b1-4)GlcNAc
# Summary of the method: as §1
# [15] = biological target: Neu5Ac(a2-6)GlcNAc(b1-4)GlcNAc(b1-4)GlcNAc
# Summary of the method: as §1
# [16] = biological target: Neu5Ac(a2-8)Neu5Ac
# Summary of the method: as §1
# [17] = biological target: Neu5Ac(a2-8)Neu5Ac(a2-3)Gal(b1-4)Glc
# Summary of the method: as §1
# [18] = biological target: Neu5Ac(a2-8)Neu5Ac(a2-3)[GalNAc(b1-4)]Gal(b1-4)Glc
# Summary of the method: as §1
# [19] = biological target: Neu5Ac(a2-8)Neu5Ac(a2-8)Neu5Ac
# Summary of the method: as §1
# [20] = biological target: Neu5Ac(a2-8)Neu5Ac(a2-8)Neu5Ac(a2-3)Gal(b1-4)Glc
# Summary of the method: as §1
# [21] = biological target: Neu5Ac(a2-8)Neu5Ac(a2-8)Neu5Ac(a2-3)[GalNAc(b1-4)]Gal(b1-4)Glc
# Summary of the method: as §1
# [22] = biological target: Neu5Ac(a2-8)Neu5Ac(a2-8)Neu5Ac(a2-8)Neu5Ac(a2-3)[GalNAc(b1-4)]Gal(b1-4)Glc
# Summary of the method: as §1
# [23] = biological target: Neu5Ac(b2-6)Gal(b1-4)GlcNAc
# Summary of the method: as §1
# [24] = biological target: Neu5Ac(b2-6)GalNAc
# Summary of the method: as §1
# [25] = biological target: Neu5Ac9Ac(a2-3)Gal(b1-3)GlcNAc
# Summary of the method: as §1
# [26] = biological target: Neu5Ac9Ac(a2-3)Gal(b1-4)GlcNAc
# Summary of the method: as §1
# [27] = biological target: Neu5Ac9Ac(a2-6)Gal(b1-4)GlcNAc
# Summary of the method: as §1
# [28] = biological target: Neu5Gc(a2-3)Gal(b1-3)GlcNAc
# Summary of the method: as §1
# [29] = biological target: Neu5Gc(a2-3)Gal(b1-3)[Fuc(a1-4)]GlcNAc
# Summary of the method: as §1
# [30] = biological target: Neu5Gc(a2-3)Gal(b1-4)Glc
# Summary of the method: as §1
# [31] = biological target: Neu5Gc(a2-3)Gal(b1-4)GlcNAc
# Summary of the method: as §1
# [32] = biological target: Neu5Gc(a2-3)Gal(b1-4)[Fuc(a1-3)]GlcNAc
# Summary of the method: as §1
# [33] = biological target: Neu5Gc(a2-6)Gal(b1-4)GlcNAc
# Summary of the method: as §1
# [34] = biological target: Neu5Gc(a2-6)GalNAc
# Summary of the method: as §1
# [35] = biological target: Neu5Gc(b2-6)Gal(b1-4)GlcNAc
# Summary of the method: as §1
binder,measurement,setting,value
B1,glycan array binding signal (z-score),[1],0.505
same,glycan array binding signal (z-score),[2],1.09
same,glycan array binding signal (z-score),[3],0.46
same,glycan array binding signal (z-score),[4],1.29
same,glycan array binding signal (z-score),[5],-0.186
same,glycan array binding signal (z-score),[6],-1.03
same,glycan array binding signal (z-score),[7],0.478
same,glycan array binding signal (z-score),[8],-0.611
same,glycan array binding signal (z-score),[9],0.249
same,glycan array binding signal (z-score),[10],-0.638
same,glycan array binding signal (z-score),[11],-0.002
same,glycan array binding signal (z-score),[12],-0.915
same,glycan array binding signal (z-score),[13],-1.03
same,glycan array binding signal (z-score),[14],-1.21
same,glycan array binding signal (z-score),[15],-0.053
same,glycan array binding signal (z-score),[16],0.501
same,glycan array binding signal (z-score),[17],0.514
same,glycan array binding signal (z-score),[18],-1.36
same,glycan array binding signal (z-score),[19],0.952
same,glycan array binding signal (z-score),[20],0.282
same,glycan array binding signal (z-score),[21],-1.2
same,glycan array binding signal (z-score),[22],0.181
same,glycan array binding signal (z-score),[23],-0.019
same,glycan array binding signal (z-score),[24],-1.3
same,glycan array binding signal (z-score),[25],-0.504
same,glycan array binding signal (z-score),[26],-1.18
same,glycan array binding signal (z-score),[27],0.585
same,glycan array binding signal (z-score),[28],-0.622
same,glycan array binding signal (z-score),[29],-0.646
same,glycan array binding signal (z-score),[30],-0.109
same,glycan array binding signal (z-score),[31],0.722
same,glycan array binding signal (z-score),[32],-0.231
same,glycan array binding signal (z-score),[33],0.988
same,glycan array binding signal (z-score),[34],-0.607
same,glycan array binding signal (z-score),[35],-0.566
